Results on one molecule are retold here after publication PMC11169420, “The kinase ZYG-1 phosphorylates the cartwheel protein SAS-5 to drive centriole assembly in C. elegans” (EMBO Reports, 2024).

No constants are given. Whether binding was seen depends on the method and setting. Where a sequence is shown, tags or fusion partners need not be part of it.

The target in the assay is T1, GST-SAS-5 fragment spanning amino acids 108-404 (C-terminal 6X-His) (C. elegans) (UniProt Q20010).
T1 sequence: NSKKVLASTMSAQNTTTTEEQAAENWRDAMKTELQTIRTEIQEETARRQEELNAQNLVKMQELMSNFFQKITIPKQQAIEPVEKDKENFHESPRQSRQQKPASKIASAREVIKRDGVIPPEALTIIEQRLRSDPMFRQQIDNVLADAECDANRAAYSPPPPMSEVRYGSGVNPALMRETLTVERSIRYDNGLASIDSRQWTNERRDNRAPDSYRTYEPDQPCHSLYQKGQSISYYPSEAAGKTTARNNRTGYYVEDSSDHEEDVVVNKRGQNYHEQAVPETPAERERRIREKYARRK
In words: pull-down; GST-SAS-5 baits (4.32 mM as printed) on magnetic glutathione beads, blocked with Odyssey blocking buffer; ZYG-1 prey (0.2 mM as printed) 1 h at 4 °C; washed with 50 mM Tris pH 8.0, 50 mM NaCl, 5 mM DTT; immunoblot with anti-GST and anti-ZYG-1; GST alone as negative control; both purified. For orientation: In western blotting, separated proteins are transferred to a membrane and probed.

B1: ZYG-1::His6, full-length, refolded in vitro (enzyme, UniProt Q9GT24 1-706)
chain: MSGGKSGSRLSAYSHLKEIGKGGFGVVYAAQRENGEKVAIKRIDKKVPKNRVWTEIQTMKELKKSKYVVEFYEDFVEDGYTYIVMELCEGGSLQAYVREHGALDDATAVHVLRQLISAVSFMHRVNVIHRDLSAGNVFIKDSKKKKMTVKLGDFGLATTLGRGETTCTIVGTPGFIAPQVYDQEYTQSADVYSLGAVLYTMLTARNPPPKGLPPTCGMSPNAARLVEQMMDTDAKKRIPLTQIVLSEFMYENTNENAVIFSREHSRDGRRQRSREPVRSSRDDRSRDGRALIRSSSQPAHSGRAPLSNRPIHDRMPSTSSRGFDSERGRERDRDSGRGTVPPSREDRNRSQLWPIRMDRLEGQRVCTAGGRYIVELDTRCRFEVAAQGNFVKRILIVEVDEMVQTVYVHRIPDRTVRGRNGEEELITLTNNPFVYTSYSQMPKEVQNDYMRLQKMVAVTISGRVAKVTFRRPSQFPDAQAQLMENGDLRIKLPRSVIVRKMDNGEIFNCIDGIATQKQAVSGITLTKVNEVYKYLIRFEQCLNGMDRGMVCFPIVFSAGTNMVGSSPSSLMPSGSSQTSRFPFSNLSNNQPSLVPHSAPFLTKPTSSQRASSANVQRRVSTDENSSPSVAPSKYKIKIDPTTQKVRSIQATDGRVLRCSTSKADQFIFTDPAIRPDDQRFMRTDRVPDRASEMLHTLCERMRKLHQ
As for B1, the binding entry is listed as “no binding (tested: 0.2 mM prey (so in the source))”.
